This passage reports binding results from article PMC2943901.

The target in the test is myc tagged carboxyl terminus of palladin. Nature of the test: co-IP; myc tagged palladin constructs co-transfected with flag tagged MRTF into HEK-293 cells; lysed 36 h after transfection; IP with myc antibody, blots with myc and flag antibodies.

Results are given in words; binding and its absence hold for the method and conditions named. In cells and extracts the contact can be indirect. A result given as binding can be weak or reduced; the word gives no strength. Tags and fused reporters may be left off the sequences shown.

B1: flag tagged MRTF-A (protein, UniProt Q8K4J6-2 1-929)
chain: MPPLKSPAAFHEQRRSLERARTEDYLKRKIRSRPERAELVRMHILEETSAEPSLQAKQLKLKRARLADDLNEKIAQRPGPMELVEKNILPVESSLKEAIIVGQVNYPKVADSSSFDEDSSDALSPEQPASHESQGSVPSPLESRVSDPLPSATSISPTQVLSQLPMAPDPGETLFLAEQPPLPPAPLLPPSLANGSIVPTAKPAPTLIKQSQPKSASEKSQRSKKAKELKPKVKKLKYHQYIPPDQKQDKGAPAMDSSYAKILQQQQLFLQLQILNQQQQQQQQQHYNYQAILPAPPKPSAETPGSSAPTPSRSLSTSSSPSSGTPGPSGLARQSSTALAAKPGALPANLDDMKVAELKQELKLRSLPVSGTKTELIERLRAYQDQVSPAPGAPKAPATTSVLSKAGEVVVAFPAALLSTGSALVTAGLAPAEMVVATVTSNGMVKFGSTGSTPPVSPTPSERSLLSTGDENSTPGDAFGEMVTSPLTQLTLQASPLQIVKEEGARAASCCLSPGARAELEGLDKDQMLQEKDKQIEELTRMLQQKQQLVELLRLQLEQQKRAQQPAPASSPVKRESGFSSCQLSCQPQGSAHAFGSGLVVPTTNHGDTQAPAPESPPVVVKQEAGPPEPDLAPSSQLLLGSQGTSFLKRVSPPTLVTDSTGTHLILTVTNKSADGPGLPAGSPQQPLSQPGSPAPGPPAQMDLEHPPQPPFATPTSLLKKEPPGYEETVTQQPKQQENGSSSQHMDDLFDILIQSGEISADFKEPPSLPGKEKSPPAAAAYGPPLTPQPSPLSELPQAAPPPGSPTLPGRLEDFLESSTGLPLLTSGHEGPEPLSLIDDLHSQMLSSSAILDHPPSPMDTSELHFAPEPSSGMGLDLAVGHLDSMDWLELSSGGPVLSLAPLSTAAPSLFSMDFLDGHDLQLHWDSCL
Consider B1, for which the binding entry was “binds”.

B2: flag tagged MRTF-B (protein, UniProt P59759 1-1080)
chain: MIDSSKKQPQGFPEILTAEDFEPFKEKECLEGSNQKSLKEVLQLRLQQRRTREQLVDQGIMPPLKSPAAFHEQIKSLERARTENFLKHKIRSRPDRSELVRMHILEETFAEPSLQATQMKLKRARLADDLNEKIAQRPGPMELVEKNILPVDSSVKEAIIGVVKEDYPHTHGEFSFDEDSSDALSPDQPASQESQGSAASPSEPKVSASPPPVTASTPAQFTSVSPAVPEFLKTPLTADQPPTRSTAPVLPTNTVSSAKSGPMLVKQSHPKNPNDKHRSKKCKDPKPRVKKLKYHQYIPPNQKGEKSEPQMDSNYARLLQQQQLFLQLQILSQQQQQQQQQHYNYQTILPAPIKTDKNSSSGSNSGSSSSMPARRPGPLPSSLDDLKVSELKTELKLRGLPVSGTKPDLIERLKPYQEVTSSNLATGSIVAVSSATIVTSNPEVTVALPVTTLHNAVTSSVSTFKADLALPATSSVPHVENAHSPLPISPSPSEQSSLSTDDTNMTDTFTEIMTMMSPSQLLCSSPLRVVSHDDSLSPSSSTLSTLELDAAEKDRKLQEKEKQIEELKRKLEQEQKLVEVLKMQLEVEKRGQQRPPDPQPSDPPHPFNTSDPKHGSVGSSIKDEASLPDCSSPQQPITVPGHSVGQPISTGSQTLVAKKTVVVKQEVPMAQAEQQNVVSQFYLSSQGQPPALVAQPQALLTTQTTQLLLPVSIQGSNVTSVQLPVGSLQLQTPAQGRVQAQPHVAAATQVPAAALPSALTSALPQKQEAFPQHVLGQPQPVRKVFTNSAPNTVLQYQRQPGPTNQQPFVSKTSNPALQSRTAPLAPLQNGPSLASKPSSPPPPQQFVVQHSLFATPITKTKDPPRYEEAIKQTRSTQPALPEVSSVHSQQMDDLFDILIKSGEISFPIKEEPSPISKMKPVTASITTMPVNTVVSRPPPQVQIAPPVSLEPVNSLSASLENQLEAFLDGTLPSATDTGPLQNSSEDRESFSLIEDLQNDLLSHSSMLYQSHSPMETSEAQLVSGTPCLSLDLSDSNLDNMEWLDITMPTTSSGLTPLSTTAPSMFSADFLDPQDLPLPWD
As to B2, the binding entry is listed as “binds”.
